No constants are given. Whether binding was seen depends on the method and setting. Binding seen in cells or lysates may run through a third protein. Some binding calls cover weakened binding; strength is not graded here.

Amino acid sequences for entries named in this document (tags omitted). A change or cut given only in a name is not applied to a line headed by its entry.
UniProt Q96PU5: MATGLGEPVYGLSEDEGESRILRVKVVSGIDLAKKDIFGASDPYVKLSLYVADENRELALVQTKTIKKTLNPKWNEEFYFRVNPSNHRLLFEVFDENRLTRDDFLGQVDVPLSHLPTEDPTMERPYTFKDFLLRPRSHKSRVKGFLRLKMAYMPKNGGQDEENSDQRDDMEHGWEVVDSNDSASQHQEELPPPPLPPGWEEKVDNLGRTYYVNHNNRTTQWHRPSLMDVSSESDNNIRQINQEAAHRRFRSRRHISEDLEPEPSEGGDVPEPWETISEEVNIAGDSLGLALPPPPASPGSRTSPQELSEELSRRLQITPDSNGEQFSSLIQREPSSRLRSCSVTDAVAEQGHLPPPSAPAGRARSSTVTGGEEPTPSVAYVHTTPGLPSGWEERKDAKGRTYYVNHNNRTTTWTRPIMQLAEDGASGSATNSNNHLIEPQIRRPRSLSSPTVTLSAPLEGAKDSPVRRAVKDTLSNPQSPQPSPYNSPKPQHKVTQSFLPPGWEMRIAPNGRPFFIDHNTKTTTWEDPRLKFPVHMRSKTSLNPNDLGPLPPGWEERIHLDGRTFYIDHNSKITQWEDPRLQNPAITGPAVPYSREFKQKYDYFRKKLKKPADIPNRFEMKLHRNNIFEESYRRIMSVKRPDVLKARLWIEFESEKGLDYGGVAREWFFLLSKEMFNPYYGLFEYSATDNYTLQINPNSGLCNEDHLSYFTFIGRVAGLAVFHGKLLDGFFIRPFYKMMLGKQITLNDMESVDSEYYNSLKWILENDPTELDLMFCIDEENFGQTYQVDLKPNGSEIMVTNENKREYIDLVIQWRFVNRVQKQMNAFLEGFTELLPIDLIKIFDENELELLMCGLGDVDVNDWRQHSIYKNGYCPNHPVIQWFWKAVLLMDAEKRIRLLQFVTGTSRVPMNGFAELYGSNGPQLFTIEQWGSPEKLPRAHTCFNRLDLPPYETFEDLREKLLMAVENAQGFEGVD
UniProt Q9NPD8: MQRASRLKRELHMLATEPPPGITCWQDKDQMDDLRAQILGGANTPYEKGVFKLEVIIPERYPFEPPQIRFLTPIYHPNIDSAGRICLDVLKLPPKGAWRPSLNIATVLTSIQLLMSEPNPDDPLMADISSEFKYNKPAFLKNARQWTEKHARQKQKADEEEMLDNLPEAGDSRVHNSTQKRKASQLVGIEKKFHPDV

This assay concerns the target HA-NEDD4L (UniProt Q96PU5). Briefly: co-IP; H1299 cells transiently transfected with HA-NEDD4L; lysed in 20 mM Tris-HCl pH 7.5, 150 mM NaCl, 1% NP-40, 0.1% SDS, 0.5% sodium deoxycholate, 1 mM EDTA; immunoprecipitated with bead-conjugated HA antibody, 4 h at 4 °C; immunoblot for endogenous UBE2T.

Consider “Ubiquitin-conjugating enzyme E2T (UBE2T), endogenous (from UniProt Q9NPD8 1-197)”, for which the binding entry is given as “binds”.
